Experimental data: PubChem BioAssay AID504808 (Drosophila RNAi Screening Center, 2011)
Screen: 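Chromatin factors that keep E2F targets switched off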 (primary screen). System: Drosophila S2 cells. Reagents: long dsRNA against Drosophila genes. Read-out: 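Dual luciferase plate measurements; E2F-specific signal taken as firefly over Renilla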. Scale: E2F firefly: higher = more E2F reporter activity; Renilla normaliser: higher = more normaliser reporter signal. Call rule: 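Called active if the normalised E2F reporter went up by over 50%; the cutoff is arbitrary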.
In all, the deposit lists about 21,000 reagents; below is a random part of those that have a named target and a result. In the full data, 18 (0.084%) got an active call. 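Raw counts without plate normalisation, one of two replicates; the ratio scores behind the calls were not deposited.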 Entries without a mark were called inactive. Reagents against one gene are numbered here. A plus sign joins genes that one reagent is predicted to hit. Not given: the amount of reagent, the time to read-out.

predicted target	reagent	E2F firefly, rep 1	Renilla normaliser, rep 1
CG15706	1	1.49e5	5253
CG18467	1	1.65e5	4629
CG31368	1	1.53e5	6904
CG31368	2	74882	3882
CG17261	1	1.47e5	4872
Ttc30	1	1.40e5	6448
Ttc30	2	96712	3911
CG7900	1	1.54e5	6604
defl	1	1.04e5	3338
fzr	1	54924	8470
CG6962	1	62107	3947
CG7203	1	1.55e5	5305
5-HT2A	1	74824	3490
CG10916	1	71113	3331
smid	1	99603	3936
Nhe1	1	90282	3625
Unc-115a	1	64668	3927
CG1105	1	68725	3182
Klp10A	1	7491	792
CG11168	1	86112	3525
CG32284	1	1.20e5	3804
CG32625	1	92958	2751
Spn85F	1	55899	4754
tll	1	1.29e5	6375
CG15347	1	1.11e5	5559
CG6040	1	73044	3486
Ag5r	1	8094	832
Atg7	1	1.64e5	7286
Atg7	2	1.53e5	4691
Sply	1	50603	3433
Ars2	1	80233	3404
CG11586	1	67019	3190
CG31815	1	1.37e5	5397
RfC3	1	1.63e5	5646
eIF4EHP	1	89065	2384
eIF4EHP	2	77152	3315
fs(1)h	1	66484	736
Nnp-1	1	97073	4139
CG11241	1	68018	3281
CG4892	1	1.08e5	3646
Prx6c + CG12896 + Prx6b	1	1.42e5	4675
CG42597	1	1.19e5	4776
Pex12	1	1.52e5	6301
CG14258	1	1.35e5	7621
CG15278	1	99943	4721
CG32182	1	1.29e5	3978
trpl	1	1.49e5	5352
trpl	2	1.46e5	4734
snoRNA:Me28S-C3227a + snoRNA:Me18S-A1061 + snoRNA:Me28S-C3227b + 7 more	1	1.26e5	4400
CG6738	1	99202	5626
Saysd1	1	1.13e5	6543
CG1603	1	74026	3350
ALiX	1	1838	980
Sec5	1	68483	4039
CG33158	1	51439	2946
CG33158	2	1.61e5	8938
CG33158	3	1.75e5	8046
CG13403	1	2.31e5	6331
eRF3	1	1.03e5	4331
CG14689	1	1.33e5	6442
CG42397	1	1.32e5	5108
LpR2	1	92126	2622
LpR2	2	88126	2891
LpR2	3	1766	1000
LpR2	4	83639	5012
dpr13	1	1.55e5	5440
dpr13	2	1.30e5	4011
CG6788	1	1.58e5	6908
CG16782	1	1.08e5	5394
Nox	1	1.41e5	5361
Nox	2	1.32e5	5112
Best3	1	1.58e5	7816
Ada1-1 + Ada1-2	1	1.13e5	5790
Ada1-1 + Ada1-2	2	1.28e5	6831
Ir87a	1	1.16e5	6209
CG6073	1	89937	932
CG32544	1	1.61e5	4435
Dlic	1	8861	668
Gbeta76C	1	77965	3125
CG13442	1	1.08e5	4733
CG30034 (retired record)	1	1.26e5	4812
Tim17b2	1	1.07e5	4628
Myd88	1	2754	176
Klp61F	1	80394	4162

6 entries from above, ordered by “Renilla normaliser, rep 1”, descending.
predicted target	reagent	E2F firefly, rep 1	Renilla normaliser, rep 1
CG14258	1	1.35e5	7621
Pex12	1	1.52e5	6301
CG42597	1	1.19e5	4776
Prx6c + CG12896 + Prx6b	1	1.42e5	4675
CG4892	1	1.08e5	3646
CG11241	1	68018	3281
